No constants are given. Whether binding was seen depends on the method and setting. Some entries that bind do so weakly or less than the wild type.
Molecular target: mature TGF-β1 (UniProt P04202)
Assay: immunoprecipitation of Htra3-flag followed by western blot

The chains behind the UniProt entries cited, without tags or fusion partners. Residues count along the entry.
UniProt P04202, residues 279-390: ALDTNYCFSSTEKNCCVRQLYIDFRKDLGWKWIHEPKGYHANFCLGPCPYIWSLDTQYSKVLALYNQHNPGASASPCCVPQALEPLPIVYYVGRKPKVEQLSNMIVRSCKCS
UniProt Q9D236, residues 24-459: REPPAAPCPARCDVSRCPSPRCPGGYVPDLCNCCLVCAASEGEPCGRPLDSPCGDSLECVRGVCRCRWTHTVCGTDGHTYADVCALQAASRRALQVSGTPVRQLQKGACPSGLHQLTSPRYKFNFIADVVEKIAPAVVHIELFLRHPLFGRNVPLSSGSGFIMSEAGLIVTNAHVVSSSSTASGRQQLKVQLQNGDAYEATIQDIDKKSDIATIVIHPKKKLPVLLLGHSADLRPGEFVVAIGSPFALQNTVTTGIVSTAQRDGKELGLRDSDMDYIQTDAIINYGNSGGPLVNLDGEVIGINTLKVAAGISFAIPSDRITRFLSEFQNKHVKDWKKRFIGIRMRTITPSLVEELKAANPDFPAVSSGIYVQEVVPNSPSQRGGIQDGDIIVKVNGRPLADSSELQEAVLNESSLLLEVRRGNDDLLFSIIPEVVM

- binding: binds
Substance: Htra3 tagged with FLAG at the C-terminus (Htra3-flag protein) (from UniProt Q9D236 24-459) (enzyme)

— US20260000742A1
